# Results of single-concentration screens

Sequences of proteins named here, by UniProt entry; tags and fusion partners are left off.
UniProt P9WFT3, whole entry: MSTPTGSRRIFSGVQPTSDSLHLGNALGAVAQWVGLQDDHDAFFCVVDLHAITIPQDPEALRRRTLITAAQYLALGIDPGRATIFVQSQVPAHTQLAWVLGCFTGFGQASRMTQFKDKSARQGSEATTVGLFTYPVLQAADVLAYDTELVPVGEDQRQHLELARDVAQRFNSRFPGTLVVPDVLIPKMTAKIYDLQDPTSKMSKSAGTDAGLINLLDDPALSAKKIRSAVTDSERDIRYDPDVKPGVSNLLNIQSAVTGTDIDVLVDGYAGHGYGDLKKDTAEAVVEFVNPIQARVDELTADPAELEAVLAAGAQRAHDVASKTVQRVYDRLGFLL
UniProt P9WPC5, whole entry: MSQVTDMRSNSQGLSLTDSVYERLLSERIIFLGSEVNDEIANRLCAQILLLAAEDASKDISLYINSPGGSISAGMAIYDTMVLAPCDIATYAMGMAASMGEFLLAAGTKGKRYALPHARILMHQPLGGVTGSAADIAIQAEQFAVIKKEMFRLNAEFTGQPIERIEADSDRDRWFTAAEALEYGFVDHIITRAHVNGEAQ
UniProt P9WPC3, whole entry partner: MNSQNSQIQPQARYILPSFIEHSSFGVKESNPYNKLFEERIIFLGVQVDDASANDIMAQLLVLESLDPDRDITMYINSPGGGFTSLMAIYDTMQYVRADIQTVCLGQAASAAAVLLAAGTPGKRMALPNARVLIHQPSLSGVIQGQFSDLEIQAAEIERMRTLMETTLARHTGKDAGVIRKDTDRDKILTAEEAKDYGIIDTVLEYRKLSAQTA

MtTrpRS: 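Tryptophan-tRNA ligase, Mycobacterium tuberculosis (UniProt P9WFT3). Enzyme assay of tryptophanyl-tRNA synthetase; the read-out is not stated. Compounds at 10 µM. Direction is not recorded; retested compounds ran higher, which suggests that high means inhibition. About 65,000 compounds were tested under these conditions; 0.098% (about 64) showed 50% or more at least once.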
ClpP1P2: 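ClpP1P2, Mycobacterium tuberculosis (UniProt P9WPC5 and UniProt P9WPC3). Protease assay of ClpP1P2, read by the AMC dye that it sets free. Tested at 50 µM. Direction is inferred from only a few compounds that gave an IC50; most scored high, so higher reads as stronger inhibition. Most other retested compounds had strongly negative values. About 69,000 compounds were tested under these conditions; 0.015% (about 10) showed 50% or more at least once.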

Each number is a percent effect as filed.
The record does not define 0% and 100%; most values in the screen are far below 50% and negative numbers occur (in some assays of this library far below -100).
Compounds were drawn at random from those tested, without regard to their results.

{"compound": "CCc1ccc(C(=O)NC2CCc3nc(C)cn3C2)o1", "stereo": "centres undefined", "MtTrpRS": 3.076, "ClpP1P2": -31.53}
{"compound": "O=C(C1CCCc2[nH]ncc21)N1CCCC1", "stereo": "centres undefined", "MtTrpRS": -0.6706, "ClpP1P2": -9.66}
{"compound": "CCc1cnc(N2CCC(=O)N(CC3CC3)C(C(C)C)C2)nc1", "stereo": "centres undefined", "MtTrpRS": -1.161, "ClpP1P2": -1.877}
{"compound": "CC(C1CC1)N(C)C(=O)c1cnc(-c2ccc3c(c2)OCO3)s1", "stereo": "centres undefined", "MtTrpRS": -5.346, "ClpP1P2": -6.41}
{"compound": "CCN1CCC(CNS(=O)(=O)N2CCc3ccccc3C2)C1", "stereo": "centres undefined", "MtTrpRS": 7.407, "ClpP1P2": -9.301}
{"compound": "COCCCN(Cc1cnc(N2CCCC2)nc1)C1CCN(C)CC1", "MtTrpRS": -10.18, "ClpP1P2": -5.169}
{"compound": "O=C(CSC1CCc2ccccc2NC1=O)Nc1ccc(CCO)cc1", "stereo": "centres undefined", "MtTrpRS": -0.618, "ClpP1P2": 3.455}
{"compound": "CCC(=O)Nc1cccc(OCC(=O)N2CC=CC2C(C)C)c1", "stereo": "centres undefined", "MtTrpRS": 1.53, "ClpP1P2": -2.02}
{"compound": "CCCc1nc(N2CCCC(C)C2)c2c(n1)c(C)nn2CC", "stereo": "centres undefined", "MtTrpRS": -0.4078, "ClpP1P2": 14.5}
{"compound": "CN(Cc1ccco1)C(=O)Nc1cc(C(F)(F)F)c[nH]c1=O", "MtTrpRS": -4.184, "ClpP1P2": -4.78}
{"compound": "Cc1cnn(CC2CCCCN2CC(=O)NCc2ccccn2)c1", "stereo": "centres undefined", "MtTrpRS": 1.801, "ClpP1P2": -1.009}
{"compound": "CCCc1nccn1-c1ccc(C(O)CN2CCOCC2)cc1", "stereo": "centres undefined", "MtTrpRS": 7.637, "ClpP1P2": -7.855}
{"compound": "CC(C)CC(NS(C)(=O)=O)C(=O)N(C)Cc1nnc2n1CCC2", "stereo": "centres undefined", "MtTrpRS": -0.1009, "ClpP1P2": 1.729}
{"compound": "COc1ccc(CN[C@@H]2CO[C@H](CNC(=O)NC(C)C)[C@H]2O)cc1", "MtTrpRS": 0.4647, "ClpP1P2": -19.35}
{"compound": "CC(C)=CCN1CCC2(CC1)CC(=O)N(Cc1cc(F)cc(F)c1)C2", "MtTrpRS": -0.8804, "ClpP1P2": 7.483}
{"compound": "CCOc1cc(C)nc(N2CCN(C(=O)c3ccc[nH]3)CC2)n1", "MtTrpRS": -0.4859, "ClpP1P2": -3.083}
{"compound": "COc1cccc(C(c2c(C)n[nH]c2O)c2c(C)n[nH]c2O)c1OC", "MtTrpRS": -2.771, "ClpP1P2": -4.074}
{"compound": "COc1ccc2oc(C(C)NC(=O)NCc3noc(C)n3)c(C)c2c1", "stereo": "centres undefined", "MtTrpRS": 3.333, "ClpP1P2": -11.92}
{"compound": "CCN(C)C[C@@H]1CN(C(=O)c2cc(-c3ccc(F)cc3)n[nH]2)C[C@@H]1CO", "MtTrpRS": 3.179, "ClpP1P2": -1.525}
{"compound": "Cc1nc2c(c(NCCN3CCOCC3)n1)CCN(C)C2", "MtTrpRS": -6.358, "ClpP1P2": 2.68}
{"compound": "CN(C)c1ncc2c(c1C(=O)O)CCN(Cc1ccco1)C2", "ClpP1P2": -8.114}
{"compound": "CC1CCCCN1C(=O)CCn1cnc2sccc2c1=O", "stereo": "centres undefined", "MtTrpRS": 1.712, "ClpP1P2": -9.634}
{"compound": "CN(C)S(=O)(=O)NCc1cccnc1Oc1ccccc1", "MtTrpRS": -2.515, "ClpP1P2": -4.777}
{"compound": "CC(=O)N1CCCC2(CN(Cc3ccc(F)cc3)CCO2)C1", "stereo": "centres undefined", "MtTrpRS": -0.1627, "ClpP1P2": -13.73}
{"compound": "CN(C)C(=O)N1CCC2(CC1)NC(=O)c1ccccc12", "MtTrpRS": -2.265, "ClpP1P2": 0.04672}
{"compound": "Cc1nccn1CCCn1c(=O)cnc2ccccc21", "MtTrpRS": -5.439, "ClpP1P2": 7.572}
{"compound": "CS(=O)(=O)N1CCCC12CCN(Cc1ccoc1)CC2", "ClpP1P2": 1.86}
{"compound": "Cc1noc(C)c1CN1C(=O)[C@H]2CC[C@@H]1CN(Cc1ncc[nH]1)C2", "MtTrpRS": 0.831, "ClpP1P2": -5.619}
{"compound": "CCN(CC)CCCNC(=O)C(C)n1cc(Br)cn1", "stereo": "centres undefined", "MtTrpRS": -1.577, "ClpP1P2": 2.8}
{"compound": "CCN(Cc1noc(C)n1)C(=O)CCn1c(C)cc2ccccc21", "MtTrpRS": -4.262, "ClpP1P2": 4.963}
{"compound": "O=C(c1ncccn1)N1CCC2(CC1)COC(COc1ccccn1)C2", "stereo": "centres undefined", "MtTrpRS": -0.8718, "ClpP1P2": 2.616}
{"compound": "Cc1nc(NS(=O)(=O)c2ccc(C)c(Br)c2)no1", "MtTrpRS": 0.2863, "ClpP1P2": -6.679}
{"compound": "COCCn1ccc2c(C(=O)NC(C)C)cccc21", "MtTrpRS": -1.22, "ClpP1P2": -9.817}
{"compound": "Cc1ccc(C(C)(O)CNC(=O)c2sccc2OC(F)F)o1", "stereo": "centres undefined", "MtTrpRS": 0.7224, "ClpP1P2": 4.068}
{"compound": "Cc1c(-c2nnc(SCC(=O)O)n2C(C)c2ccccc2)cnn1C", "stereo": "centres undefined", "MtTrpRS": -1.205, "ClpP1P2": 2.442}
{"compound": "CN(C)Cc1cnn(-c2ccccc2C(=O)N(C)Cc2ccccc2)c1", "MtTrpRS": -2.377, "ClpP1P2": 0.7059}
{"compound": "Cc1nc(C)c(C(=O)N2CCc3c(C)cccc32)o1", "MtTrpRS": -3.268, "ClpP1P2": -1.882}
{"compound": "Cn1ccc(CN2CCCC(CNS(C)(=O)=O)C2)cc1=O", "stereo": "centres undefined", "MtTrpRS": 2.961, "ClpP1P2": 5.158}
{"compound": "COCc1ncc(CN2C[C@@H](C(=O)O)[C@H](C(C)C)C2)cn1", "MtTrpRS": -0.2981, "ClpP1P2": 8.722}

Repeated from the top, 2 entries:

{"compound": "CCc1ccc(C(=O)NC2CCc3nc(C)cn3C2)o1", "stereo": "centres undefined", "MtTrpRS": 3.076, "ClpP1P2": -31.53}
{"compound": "O=C(C1CCCc2[nH]ncc21)N1CCCC1", "stereo": "centres undefined", "MtTrpRS": -0.6706, "ClpP1P2": -9.66}

Data taken from ChEMBL document CHEMBL3988442, “University of Dundee, Small-Polar-MMV Screening Library” (2021).